# Values of other authors in publication PMC8536600 (Cancer Chemotherapy and Pharmacology, 2021).
# Test system: CYP3A4
# Settings: cited from earlier work
smiles,measurement,value
COC(=O)C1=C(C)NC(C)=C(C(=O)OC)C1c1ccccc1[N+](=O)[O-] [Nifedipine],CYP3A4 (inhibitor / inducer),inducer / inhibitor
